Some of the results follow.
Key:
Experiment in all cases: log2 fold change, soluble protein after heating vs DMSO (PISA); higher = thermal stabilisation; K562 lysate, 10 uM; active = over 0.2 and 3.5 SD of the protein, either way, in both replicates (recomputed)
[1] = compound: CCCS(=O)(=O)Nc1ccc(F)c(C(=O)c2c[nH]c3ncc(Cl)cc23)c1F
Method in brief: (§1)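 Following dounce homogenisation of K562 pellets in PBS pH 7.4 with 1 mM MgCl2, crude extract at 1 mg/mL protein was incubated for 30 min with 10 μM compound. Aliquots were then heated for 3 min over 48°C-58°C and pooled, NP-40 was added to 0.5% at 4°C, and soluble protein was recovered as the supernatant at 21,000xg for 90 min. Channel-sum-equalised TMTpro 16plex LC-MS/MS quantified this protein. Each value, from duplicates, is a log-two fold change in thermal stability relative to solvent controls.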

Sequences of proteins named here, by UniProt entry; tags and fusion partners are left off. A change or cut given only in a name is not applied to a line headed by its entry.
UniProt Q16649: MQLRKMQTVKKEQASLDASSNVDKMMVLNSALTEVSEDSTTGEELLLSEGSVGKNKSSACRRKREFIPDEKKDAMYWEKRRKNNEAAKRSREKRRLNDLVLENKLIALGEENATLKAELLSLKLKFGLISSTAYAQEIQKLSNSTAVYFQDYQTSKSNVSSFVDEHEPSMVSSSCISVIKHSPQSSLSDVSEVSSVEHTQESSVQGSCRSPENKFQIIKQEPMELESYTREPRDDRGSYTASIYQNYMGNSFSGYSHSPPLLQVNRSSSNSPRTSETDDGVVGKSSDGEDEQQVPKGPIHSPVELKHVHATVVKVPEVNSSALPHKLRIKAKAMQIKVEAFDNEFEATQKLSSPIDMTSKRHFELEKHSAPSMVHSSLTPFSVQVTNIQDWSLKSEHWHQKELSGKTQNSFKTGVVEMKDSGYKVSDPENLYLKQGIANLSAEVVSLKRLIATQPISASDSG
UniProt Q8NEJ9: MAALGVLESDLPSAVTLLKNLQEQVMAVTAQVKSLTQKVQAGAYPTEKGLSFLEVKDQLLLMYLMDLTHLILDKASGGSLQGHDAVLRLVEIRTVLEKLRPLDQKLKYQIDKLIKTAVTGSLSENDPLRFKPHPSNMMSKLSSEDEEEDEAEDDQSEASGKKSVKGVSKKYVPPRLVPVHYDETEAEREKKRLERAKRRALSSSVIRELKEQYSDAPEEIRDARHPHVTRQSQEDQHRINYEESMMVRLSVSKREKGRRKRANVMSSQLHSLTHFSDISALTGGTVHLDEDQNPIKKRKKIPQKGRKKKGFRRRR
UniProt O75438, whole entry, looked up: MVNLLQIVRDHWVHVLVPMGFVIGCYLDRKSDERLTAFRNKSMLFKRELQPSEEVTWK
UniProt Q92597: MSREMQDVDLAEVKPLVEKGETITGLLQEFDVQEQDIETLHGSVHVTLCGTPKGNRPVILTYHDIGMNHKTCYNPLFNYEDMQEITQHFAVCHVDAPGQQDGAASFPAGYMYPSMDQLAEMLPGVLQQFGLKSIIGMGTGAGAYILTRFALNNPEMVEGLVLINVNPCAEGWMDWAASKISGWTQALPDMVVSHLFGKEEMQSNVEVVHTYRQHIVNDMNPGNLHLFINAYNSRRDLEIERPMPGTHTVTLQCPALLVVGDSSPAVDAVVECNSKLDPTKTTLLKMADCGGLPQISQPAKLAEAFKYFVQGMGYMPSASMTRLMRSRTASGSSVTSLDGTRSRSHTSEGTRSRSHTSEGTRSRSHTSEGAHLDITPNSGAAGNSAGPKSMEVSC
UniProt Q12857, whole entry, looked up: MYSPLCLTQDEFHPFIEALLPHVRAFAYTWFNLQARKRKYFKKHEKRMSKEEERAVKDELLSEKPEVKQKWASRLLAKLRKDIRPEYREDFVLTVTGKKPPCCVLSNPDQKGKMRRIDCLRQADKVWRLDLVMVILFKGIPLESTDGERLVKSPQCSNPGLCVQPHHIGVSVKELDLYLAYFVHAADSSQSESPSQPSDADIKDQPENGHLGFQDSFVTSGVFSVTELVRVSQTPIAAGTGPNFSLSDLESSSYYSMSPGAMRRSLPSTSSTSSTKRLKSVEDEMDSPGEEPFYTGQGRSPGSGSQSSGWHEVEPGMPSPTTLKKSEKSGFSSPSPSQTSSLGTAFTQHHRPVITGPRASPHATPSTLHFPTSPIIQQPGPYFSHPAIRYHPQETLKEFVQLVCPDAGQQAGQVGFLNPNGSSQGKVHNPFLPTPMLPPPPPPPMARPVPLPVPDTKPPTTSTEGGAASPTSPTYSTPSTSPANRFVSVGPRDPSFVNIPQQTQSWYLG
UniProt O15226: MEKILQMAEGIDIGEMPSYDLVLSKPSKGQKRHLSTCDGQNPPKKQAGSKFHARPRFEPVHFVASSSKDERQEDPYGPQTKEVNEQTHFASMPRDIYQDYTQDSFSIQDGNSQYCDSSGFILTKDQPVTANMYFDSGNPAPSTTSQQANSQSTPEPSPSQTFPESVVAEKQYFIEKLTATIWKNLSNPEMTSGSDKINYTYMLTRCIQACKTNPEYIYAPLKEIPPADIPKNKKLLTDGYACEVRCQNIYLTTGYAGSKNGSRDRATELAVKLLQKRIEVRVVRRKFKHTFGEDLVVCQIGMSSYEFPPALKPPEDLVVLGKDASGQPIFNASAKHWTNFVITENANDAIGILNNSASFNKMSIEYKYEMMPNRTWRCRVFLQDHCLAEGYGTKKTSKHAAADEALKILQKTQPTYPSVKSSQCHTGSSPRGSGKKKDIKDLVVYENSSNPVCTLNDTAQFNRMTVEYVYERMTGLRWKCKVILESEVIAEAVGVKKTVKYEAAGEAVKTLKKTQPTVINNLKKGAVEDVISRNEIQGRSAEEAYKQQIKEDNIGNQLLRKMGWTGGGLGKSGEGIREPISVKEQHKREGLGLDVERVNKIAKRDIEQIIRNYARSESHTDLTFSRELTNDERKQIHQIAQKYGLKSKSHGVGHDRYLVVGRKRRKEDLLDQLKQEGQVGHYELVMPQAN
UniProt Q9BT67: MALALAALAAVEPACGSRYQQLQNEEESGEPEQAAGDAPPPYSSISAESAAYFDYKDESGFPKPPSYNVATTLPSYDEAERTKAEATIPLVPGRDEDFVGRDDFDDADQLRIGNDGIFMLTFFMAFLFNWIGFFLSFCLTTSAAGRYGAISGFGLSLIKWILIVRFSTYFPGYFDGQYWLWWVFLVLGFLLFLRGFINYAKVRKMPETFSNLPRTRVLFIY
UniProt O43677, whole entry, looked up: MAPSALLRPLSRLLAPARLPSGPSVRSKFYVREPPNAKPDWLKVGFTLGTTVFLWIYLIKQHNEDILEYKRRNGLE
UniProt Q6P3R8: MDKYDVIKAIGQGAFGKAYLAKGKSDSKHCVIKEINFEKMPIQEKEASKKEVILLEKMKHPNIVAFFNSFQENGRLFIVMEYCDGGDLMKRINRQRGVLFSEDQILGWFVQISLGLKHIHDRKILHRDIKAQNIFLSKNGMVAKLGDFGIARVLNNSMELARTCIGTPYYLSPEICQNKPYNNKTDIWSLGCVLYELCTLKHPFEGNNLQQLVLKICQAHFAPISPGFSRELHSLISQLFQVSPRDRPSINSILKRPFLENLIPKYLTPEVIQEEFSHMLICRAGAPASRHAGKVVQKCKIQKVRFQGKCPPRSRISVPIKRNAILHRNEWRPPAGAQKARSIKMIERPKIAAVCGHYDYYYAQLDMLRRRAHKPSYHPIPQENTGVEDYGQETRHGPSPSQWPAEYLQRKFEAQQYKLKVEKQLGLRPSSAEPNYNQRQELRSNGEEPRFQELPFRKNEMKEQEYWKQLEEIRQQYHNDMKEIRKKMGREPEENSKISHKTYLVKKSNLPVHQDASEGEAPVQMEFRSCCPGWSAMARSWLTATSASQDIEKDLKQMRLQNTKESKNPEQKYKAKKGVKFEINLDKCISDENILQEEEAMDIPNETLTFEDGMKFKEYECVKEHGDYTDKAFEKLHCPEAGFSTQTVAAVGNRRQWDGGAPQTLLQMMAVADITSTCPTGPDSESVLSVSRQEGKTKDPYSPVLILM
UniProt Q86UT6, whole entry, looked up: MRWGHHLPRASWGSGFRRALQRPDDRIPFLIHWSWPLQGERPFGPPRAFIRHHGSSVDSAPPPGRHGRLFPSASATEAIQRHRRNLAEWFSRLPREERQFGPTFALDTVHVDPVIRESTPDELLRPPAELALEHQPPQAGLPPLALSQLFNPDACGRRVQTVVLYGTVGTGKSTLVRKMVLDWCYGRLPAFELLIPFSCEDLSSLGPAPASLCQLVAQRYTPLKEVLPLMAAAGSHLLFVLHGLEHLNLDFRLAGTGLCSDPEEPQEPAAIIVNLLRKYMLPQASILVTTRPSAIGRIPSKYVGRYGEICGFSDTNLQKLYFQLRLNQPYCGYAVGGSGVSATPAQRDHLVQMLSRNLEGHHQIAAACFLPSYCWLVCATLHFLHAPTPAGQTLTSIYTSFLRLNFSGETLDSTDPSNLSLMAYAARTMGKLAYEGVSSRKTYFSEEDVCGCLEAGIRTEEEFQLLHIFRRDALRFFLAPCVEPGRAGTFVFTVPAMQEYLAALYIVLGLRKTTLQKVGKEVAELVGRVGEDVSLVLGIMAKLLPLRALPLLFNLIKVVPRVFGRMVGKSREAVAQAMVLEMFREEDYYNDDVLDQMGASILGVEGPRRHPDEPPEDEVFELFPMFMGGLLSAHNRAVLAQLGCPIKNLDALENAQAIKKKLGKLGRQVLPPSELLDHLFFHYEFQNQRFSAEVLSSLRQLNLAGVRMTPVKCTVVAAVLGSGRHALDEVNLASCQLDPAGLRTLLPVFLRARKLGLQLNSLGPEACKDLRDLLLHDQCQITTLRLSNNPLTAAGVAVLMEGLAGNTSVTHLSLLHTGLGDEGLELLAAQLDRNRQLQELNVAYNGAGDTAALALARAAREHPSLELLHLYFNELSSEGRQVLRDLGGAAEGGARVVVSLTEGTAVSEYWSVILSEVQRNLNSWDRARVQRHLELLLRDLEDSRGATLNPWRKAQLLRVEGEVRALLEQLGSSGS
UniProt O14524: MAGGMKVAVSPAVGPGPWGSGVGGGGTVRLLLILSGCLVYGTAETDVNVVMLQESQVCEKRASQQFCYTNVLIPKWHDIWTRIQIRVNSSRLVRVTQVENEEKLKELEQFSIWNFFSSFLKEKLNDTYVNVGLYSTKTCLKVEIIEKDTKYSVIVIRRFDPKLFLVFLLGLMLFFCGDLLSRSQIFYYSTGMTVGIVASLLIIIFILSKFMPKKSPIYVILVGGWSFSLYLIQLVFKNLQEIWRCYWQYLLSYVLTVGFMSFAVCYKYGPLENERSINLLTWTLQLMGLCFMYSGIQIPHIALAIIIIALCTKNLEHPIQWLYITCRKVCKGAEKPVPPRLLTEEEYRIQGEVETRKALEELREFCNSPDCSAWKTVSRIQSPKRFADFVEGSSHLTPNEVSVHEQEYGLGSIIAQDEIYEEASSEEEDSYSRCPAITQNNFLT
UniProt Q9NV92: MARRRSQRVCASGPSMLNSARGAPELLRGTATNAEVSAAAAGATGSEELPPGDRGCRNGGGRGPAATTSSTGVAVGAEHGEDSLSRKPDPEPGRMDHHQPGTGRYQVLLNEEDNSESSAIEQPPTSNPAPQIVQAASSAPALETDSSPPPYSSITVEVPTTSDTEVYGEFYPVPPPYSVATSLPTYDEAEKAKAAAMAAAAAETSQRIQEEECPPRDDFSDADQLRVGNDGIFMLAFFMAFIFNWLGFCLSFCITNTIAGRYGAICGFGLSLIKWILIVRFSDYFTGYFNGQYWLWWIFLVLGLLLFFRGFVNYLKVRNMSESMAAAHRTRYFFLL
UniProt Q86SG6: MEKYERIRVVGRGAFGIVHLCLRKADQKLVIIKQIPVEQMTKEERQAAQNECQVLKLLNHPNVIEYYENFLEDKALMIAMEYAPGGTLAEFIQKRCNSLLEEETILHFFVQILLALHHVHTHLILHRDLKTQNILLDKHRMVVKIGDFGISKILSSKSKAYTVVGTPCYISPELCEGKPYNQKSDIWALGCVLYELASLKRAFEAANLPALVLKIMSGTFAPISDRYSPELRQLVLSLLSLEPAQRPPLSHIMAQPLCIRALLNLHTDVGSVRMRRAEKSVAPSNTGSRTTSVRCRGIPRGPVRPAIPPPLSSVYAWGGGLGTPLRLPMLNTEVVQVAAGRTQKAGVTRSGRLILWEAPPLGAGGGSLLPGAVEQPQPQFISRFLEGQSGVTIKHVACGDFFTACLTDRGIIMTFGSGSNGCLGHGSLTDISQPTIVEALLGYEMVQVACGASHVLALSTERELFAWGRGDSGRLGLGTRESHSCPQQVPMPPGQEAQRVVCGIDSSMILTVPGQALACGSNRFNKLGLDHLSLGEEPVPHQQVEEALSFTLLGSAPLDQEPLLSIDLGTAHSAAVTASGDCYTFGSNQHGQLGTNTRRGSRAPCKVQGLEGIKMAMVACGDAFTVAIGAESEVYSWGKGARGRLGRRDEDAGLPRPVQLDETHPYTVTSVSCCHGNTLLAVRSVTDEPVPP
UniProt O95167, whole entry, looked up: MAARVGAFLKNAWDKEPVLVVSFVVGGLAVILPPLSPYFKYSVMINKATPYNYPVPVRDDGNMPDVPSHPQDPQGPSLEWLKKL
UniProt Q5JS37: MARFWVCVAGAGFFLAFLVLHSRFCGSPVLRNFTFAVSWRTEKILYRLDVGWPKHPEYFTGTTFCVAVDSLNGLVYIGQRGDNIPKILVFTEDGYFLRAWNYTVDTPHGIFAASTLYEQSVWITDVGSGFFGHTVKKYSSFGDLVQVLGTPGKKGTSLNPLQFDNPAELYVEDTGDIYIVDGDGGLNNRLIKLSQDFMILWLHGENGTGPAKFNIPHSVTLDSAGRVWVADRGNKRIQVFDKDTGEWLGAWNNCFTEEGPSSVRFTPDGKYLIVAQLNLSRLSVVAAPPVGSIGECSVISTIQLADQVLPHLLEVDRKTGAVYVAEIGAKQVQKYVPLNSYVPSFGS
UniProt Q9NYS0: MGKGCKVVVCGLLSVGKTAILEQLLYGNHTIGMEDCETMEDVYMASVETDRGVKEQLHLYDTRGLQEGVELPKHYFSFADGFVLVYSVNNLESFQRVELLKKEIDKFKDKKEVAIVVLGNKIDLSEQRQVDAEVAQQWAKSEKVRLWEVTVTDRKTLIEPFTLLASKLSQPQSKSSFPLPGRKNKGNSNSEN

[2] = compound: CC[C@@H]1C(=O)N(C)c2cnc(Nc3ccc(C(=O)NC4CCN(C)CC4)cc3OC)nc2N1C1CCCC1
Method in brief: as §1

volasertib = compound: CC[C@@H]1C(=O)N(C)c2cnc(Nc3ccc(C(=O)N[C@H]4CC[C@H](N5CCN(CC6CC6)CC5)CC4)cc3OC)nc2N1C(C)C [volasertib]
Method in brief: as §1

[3] = compound: CCn1c(C(=O)N(C2CC2)C2CC2)cc2c3c(ncn3C)c(Nc3cc(C)n(C)n3)nc21
Method in brief: as §1

vemurafenib = compound: CCCS(=O)(=O)Nc1ccc(F)c(C(=O)c2c[nH]c3ncc(-c4ccc(Cl)cc4)cc23)c1F [vemurafenib]
Method in brief: as §1

barasertib = compound: CCN(CCCOc1ccc2c(Nc3cc(CC(=O)Nc4cccc(F)c4)[nH]n3)ncnc2c1)CCOP(=O)(O)O [barasertib]
Method in brief: as §1

[4] = compound: CCn1cc(-c2ccnc3[nH]c(-c4cccc(CN(C)C)c4)cc23)c(-c2ccc(NC(=O)N(C)C)cc2)n1
Method in brief: as §1

[5] = compound: CN1CCC(CNc2ccc3ncc(-c4cccc(OC(F)(F)F)c4)n3n2)CC1
Method in brief: as §1

saracatinib = compound: CN1CCN(CCOc2cc(OC3CCOCC3)c3c(Nc4c(Cl)ccc5c4OCO5)ncnc3c2)CC1 [saracatinib]
Method in brief: as §1

sotrastaurin = compound: CN1CCN(c2nc(C3=C(c4c[nH]c5ccccc45)C(=O)NC3=O)c3ccccc3n2)CC1 [sotrastaurin]
Method in brief: as §1

Measured: log2 fold change

NFIL3 (UniProt Q16649)
inactive: [1] -0.058 | [2] 0.082 | volasertib -0.305 | [3] 0.087

NEU4 (UniProt C9JEA3)
inactive: vemurafenib 0.058 | barasertib -0.01 | [3] -0.106 | [4] -0.075 | [5] 0.066 | saracatinib -0.003 | sotrastaurin 0.022

NEURL4 (UniProt Q96JN8)
inactive: vemurafenib -0.095 | [1] 0.051 | [2] -0.092 | volasertib -0.006 | [4] -0.03 | [5] -0.017 | saracatinib -0.292 | sotrastaurin 0.094

NDRG2 isoform 6 (UniProt Q9UN36)
inactive: vemurafenib -0.22 | [1] 0.046 | [2] 0.214 | volasertib 0.205 | [3] -0.026 | saracatinib -0.007

NECTIN2 isoform 2 (UniProt Q92692)
inactive: vemurafenib -0.125 | [1] 0.002 | [2] 0.006 | volasertib 0.041 | [3] 0.044 | [4] 0.157 | [5] -0.032 | saracatinib -0.026 | sotrastaurin 0.127

NEU3 isoform 2 (UniProt Q9UQ49)
inactive: vemurafenib 0.115 | [1] 0.067 | barasertib 0.134 | [2] -0.063 | volasertib -0.038 | [3] 0.034 | saracatinib -0.139 | sotrastaurin 0.111

NGDN (UniProt Q8NEJ9)
inactive: [1] -0.161 | [2] -0.059 | volasertib -0.108 | [3] -0.096 | sotrastaurin 0.054

NDUFB1 (UniProt O75438)
inactive: vemurafenib 0.052 | barasertib 0.026 | [3] 0.01 | [4] 0.073 | [5] -0.159 | saracatinib -0.11 | sotrastaurin 0.145

NFE2L1 (UniProt Q14494)
inactive: vemurafenib 0.055 | [2] 0.092 | [3] -0.061 | [4] 0.061 | [5] 0.083 | sotrastaurin 0.062

NDRG1 (UniProt Q92597)
inactive: vemurafenib 0.147 | [1] 0.048 | barasertib 0.105 | volasertib -0.05 | [3] -0.142 | [4] -0.018 | [5] -0.179 | saracatinib 0 | sotrastaurin 0.014

NEB isoform 3 (UniProt P20929)
inactive: vemurafenib 0.126 | [1] -0.065 | barasertib 0 | volasertib 0.002 | [3] -0.153 | [4] -0.226 | [5] 0.333 | saracatinib 0.028 | sotrastaurin 0.036

NFIA isoform 4 (UniProt Q12857)
inactive: vemurafenib -0.03 | [1] 0.02 | barasertib -0.053 | volasertib 0.053 | [3] 0.025 | [4] -0.041 | [5] 0.1 | saracatinib 0.12 | sotrastaurin -0.039

NIN isoform 7 (UniProt Q8N4C6)
inactive: [1] 0.069 | volasertib 0.063 | [3] 0.075 | [4] 0.032 | [5] 0.022 | sotrastaurin 0.022

NKRF isoform 2 (UniProt O15226)
inactive: vemurafenib -0.01 | [1] 0.089 | [2] -0.023 | volasertib 0.015 | [3] -0.055 | [4] -0.016 | [5] -0.116 | saracatinib -0.043 | sotrastaurin 0.063

NDFIP1 (UniProt Q9BT67)
inactive: vemurafenib 0.032 | [1] 0.071 | barasertib 0.02 | volasertib 0.014 | [3] -0.091 | [4] 0.141 | [5] -0.015 | saracatinib 0.112 | sotrastaurin 0

NLK (UniProt Q9UBE8)
inactive: vemurafenib -0.042 | [4] -0.223 | [5] -0.042

NFE2L2 (UniProt Q16236)
inactive: sotrastaurin 0.16

NDUFA7 (UniProt M0R0N0)
inactive: barasertib 0.016 | [4] -0.966 | [5] 0.442

NEPRO (UniProt Q6NW34)
inactive: [1] 0.02 | barasertib 0.007 | [2] 0.089 | volasertib -0.013 | [3] -0.17 | [4] 0.007 | [5] 0.038 | saracatinib -0.071 | sotrastaurin 0.046

NFRKB isoform 2 (UniProt Q6P4R8)
inactive: [1] 0.009 | [2] 0.151 | volasertib 0.04 | [4] 0.021 | [5] 0.187 | sotrastaurin -0.039

NDUFC1 (UniProt O43677)
inactive: [2] 0.077 | [3] -0.082 | saracatinib 0.131

NFAT5 isoform 4 (UniProt O94916)
inactive: barasertib -0.039 | sotrastaurin 0

NEK5 (UniProt Q6P3R8)
inactive: vemurafenib -0.095 | [1] 0.003 | [2] -0.018 | volasertib -0.047 | [3] -0.007 | [4] -0.045 | [5] -0.153 | saracatinib 0.022

NLRX1 (UniProt Q86UT6)
inactive: vemurafenib 0.101 | [2] 0.064 | [4] 0.321 | [5] -0.157

NFKBIA (UniProt P25963)
inactive: vemurafenib 0.18 | [1] 0.064 | barasertib -0.007 | volasertib -0.122 | saracatinib -0.132 | sotrastaurin 0.019

NFIX (UniProt Q14938)
inactive: [2] 0.031

NDUFAF6 (UniProt Q330K2)
inactive: [1] 0.04 | barasertib 0.094 | [2] -0.017 | volasertib -0.057 | [3] 0.145 | [4] -0.107 | [5] -0.316 | saracatinib -0.012 | sotrastaurin -0.073

NEMP1 (UniProt O14524)
inactive: barasertib -0.01 | sotrastaurin 0.048

NDFIP2 (UniProt Q9NV92)
inactive: [3] 0.027 | [4] -0.031 | [5] 0.095 | sotrastaurin 0.17

NEK8 (UniProt Q86SG6)
inactive: vemurafenib -0.089 | [3] -0.008 | [4] -0.068 | [5] -0.045

NET1 (UniProt Q7Z628)
inactive: vemurafenib 0.288 | [3] 0.008 | sotrastaurin 0.326

NLRP1 (UniProt Q9C000)
inactive: [2] -0.064 | [3] 0.034 | saracatinib 0.108 | sotrastaurin -0.292

Two neighbouring entries already listed:
NFAT5 isoform 4 (UniProt O94916)
inactive: barasertib -0.039 | sotrastaurin 0

NEK5 (UniProt Q6P3R8)
inactive: vemurafenib -0.095 | [1] 0.003 | [2] -0.018 | volasertib -0.047 | [3] -0.007 | [4] -0.045 | [5] -0.153 | saracatinib 0.022

Going on with the list.

NFYC isoform 3 (UniProt Q13952)
inactive: saracatinib -0.043

NDUFA3 (UniProt O95167)
inactive: vemurafenib 0.011 | barasertib 0.018 | [2] -0.04 | [3] 0.061 | [4] -0.148 | [5] -0.156 | saracatinib 0.028 | sotrastaurin 0.005

NFATC4 isoform 2 (UniProt Q14934)
inactive: vemurafenib 0.081 | [1] -0.013 | barasertib 0.059 | [2] -0.05 | volasertib -0.004 | [4] 0.053 | [5] 0.068 | saracatinib 0.044 | sotrastaurin 0.026

NDRG2 (UniProt G3V2A6)
inactive: [1] 0.033 | barasertib 0.393 | volasertib 0.04

NHLRC3 (UniProt Q5JS37)
inactive: vemurafenib 0.178 | [1] 0.055 | [2] 0.062 | volasertib 0.058 | [3] -0.005 | [4] -0.053 | [5] 0.022 | saracatinib 0.036 | sotrastaurin 0.068

NIPA1 (UniProt Q7RTP0)
inactive: vemurafenib 0.114 | [1] 0.021 | barasertib -0.017 | volasertib 0.078 | [3] 0.022 | [4] 0.165 | [5] 0.241 | sotrastaurin 0.101

NKIRAS1 (UniProt Q9NYS0)
inactive: vemurafenib 0.04 | [1] -0.239 | [2] 0.128 | volasertib -0.031 | [4] 0.284 | [5] 0.149 | saracatinib 0.131

Source: the supplement of paper PMC10849652
